# Measured values as given in the supplement of paper PMC5949888.
# ± gives the standard deviation of the averaged measurements. Most values lie at the floor of the assay. Slopes are relative: functional sequences can read slightly below zero.
# Tested on: Saccharomyces cerevisiae PS128 hsf1 delta, HSF1(1-493) fusion
# Assay: growth estimate (transactivation domain function in HSF1 fusion, heat-shock survival) (a.u. (slope of normalised read count over time)); higher = stronger growth at 37°C, i.e. more transactivation activity
# Conditions: library: random library
row,Substance,growth estimate
1,GSWWMQGAEGN,< -0.25
2,RQSLGRTNLVASDWSEAMNR,< -0.25
3,ESL,< -0.25
4,IFIHDPRMGTRQWSLSTPTS,< -0.25
5,TFKVRKAGEDRYL,< -0.25
6,VALHCLVGPVCT,< -0.25
7,YNC,< -0.25
8,KGPEGADRSCEQHVQTLVGI,< -0.25
9,DHNERGTWVPRGSRFVTFHA,< -0.25
10,AKCLGASTIVDDPKVNDKLI,< -0.25
11,NYTSR,< -0.25
12,WGTFEAIGERSDLELTSDQR,< -0.25
13,PVVCYG,< -0.25
14,WYVHAIFVAARKSAKRAQKT,< -0.25
15,QLSIDMT,< -0.25
16,DDTLYLLVSFPRHRTICNRG,< -0.25
17,HSYA,< -0.25
18,RTQMQQTVKSLNHM,< -0.25
19,LKRQ,< -0.25
20,TSGGPRPLRTWLSSAS,< -0.25
21,TQRRESRGEAASSSHSLMAH,< -0.25
22,ALGVRFYSTDVRTQRN,< -0.25
23,TRRKLLR,< -0.25
24,PCRIVVSLSGCRVMLVTEMS,< -0.25
25,RRARLWLGRGTYSRVARRGF,< -0.25
26,QVFLTLT,< -0.25

row,Substance,growth estimate
1,VIRCRVPCGNGAVSRQVDSI,< -0.25
2,DGAAGIDWLREYAERITEAG,< -0.25
3,RFIFQYMRYCWVYRSVESH,< -0.25
4,RWS,< -0.25
5,LWAPFH,< -0.25
6,LSWGGDCVQGKCLHKVTTLA,< -0.25
7,KERVPSLCPRMG,< -0.25
8,VLKNE,< -0.25
9,LDIGL,< -0.25
10,TTDGVAGHGVFTAHSYLGTR,< -0.25
11,TMGQSSRQTT,< -0.25
12,FKPP,-0.248
13,ILRSSGLSPFLEEAM,< -0.25
14,VTEKEVRFGRLKGVLRDRRL,< -0.25
15,SRSGLCEDEARSCICSPVLA,< -0.25
16,DDMGEPDQAVLRPS,< -0.25
17,WTWTGTDTPLVASGKHV,< -0.25
18,LYSS,< -0.25
19,IPPSPLRLSKSLVMSFYLGE,< -0.25
20,FETLASRKAHEKAGSF,< -0.25
21,QAAICAQ,< -0.25
22,SKRLPFLM,< -0.25
23,HWGRKRYGQGIFIFVPLSLY,< -0.25
24,NPTGLCLVLSVGDRLGVDFD,< -0.25
25,GPGAENPYV,< -0.25
26,QVSSDIQDPPPPRS,< -0.25

row,Substance,growth estimate
1,DANLNEEATTWLVACVCAYG,< -0.25
2,LDKVII,< -0.25
3,RPLTQVVSYDTLEENARVSL,< -0.25
4,GEHGRCECLGSLTHHDPERY,< -0.25
5,LLRPGSARGGIT,< -0.25
6,LLSYRG,< -0.25
7,RSVKGRVVIPGDVWLYDDVS,< -0.25
8,EFHMN,< -0.25
9,SSEEDFAFIRRSAWTRTWCG,< -0.25
10,GQQEPDLGRGAGTRWSGMHM,< -0.25
11,CNGTAWDI,< -0.25
12,NQQCWDRTEKDCSESSVAGQ,-0.248
13,MIMMLMVYRIPCGPIILPRG,-0.243
14,RKHAFEARCSWRGK,< -0.25
15,GRAGTGPNHGHPRLPREVPR,< -0.25
16,LHARVGAASVGRSGEDQWTL,< -0.25
17,LTAE,< -0.25
18,QLIQNPTAVCNMLSNYGSFF,< -0.25
19,VSGDPRFPPSRTKLAMVAEL,< -0.25
20,DRVSDRE,< -0.25
21,INGKSIEAQVPPRSLGFNDL,< -0.25
22,LIKSLVSTTRIAFSVDISVA,< -0.25
23,PSNSGTLKFSGSLYGTA,< -0.25
24,PVFRTHLVR,< -0.25
25,LSAECMGLFL,-0.142
26,TVGEECQNIV,< -0.25

row,Substance,growth estimate
1,LGTDLKR,< -0.25
2,EPSPWTECKAPRYWL,-0.243
3,LLIPFIGLTVSSAVRYLKYR,-0.248
4,AWNRDKPVPSGG,< -0.25
5,LVEGPR,< -0.25
6,CKL,< -0.25
7,TRSMIQDKP,< -0.25
8,RGRNVMVP,0.117
9,CRLVWSSRDVCTER,< -0.25
10,NIRSKGLRLTVRRSANAGHR,-0.246
11,IRLCPRPAANPICTFLST,< -0.25
12,TVVERWECGPNFGCVVGYFS,< -0.25
13,ATTS,< -0.25
14,LAGRSDNQACREVL,< -0.25
15,AAYV,< -0.25
16,GRRSYRRCEHSPAIRWAHAI,< -0.25
17,EYTGWSPHQPG,< -0.25
18,HMGGWR,< -0.25
19,DCQRSPLGPVTWVGLTVDVR,< -0.25
20,WMVF,< -0.25
21,LEAVRCQACAVTQMRDWRAR,< -0.25
22,WLLTICVHLSR,< -0.25
23,CRTKCNSLDWTTAAVSGVHH,< -0.25
24,SALACDIKNFN,< -0.25
25,PYSFVGNPLCAPNLVGLHVG,-0.199
26,GLSAVSSVPDYRR,< -0.25

row,Substance,growth estimate
1,YLSTAVVRGQFAPHCKLLWG,< -0.25
2,LRFRIRVTHG,< -0.25
3,ADTGKG,< -0.25
4,SDACVAICRLRRKMVPANGA,-0.23
5,VGIFVFNHSLGDASMGLGWL,< -0.25
6,ARPLYVRC,< -0.25
7,KVQVQRRAISRAAS,< -0.25
8,GPSLQS,< -0.25
9,NITTQHKAVKDSSLKYRYAC,< -0.25
10,EGRAHPSANSGHRSEHSIDL,< -0.25
11,KCDDLLANIAGSDNGTYTPG,< -0.25
12,FRAKPPSGPAYRTLLIVGVW,< -0.25
13,LSAHPLGQEPGL,< -0.25
14,SEKNSSEGAACYVRQSVLQC,< -0.25
15,SWC,< -0.25
16,VPFLCLEIDKT,< -0.25
17,RHFKRRRSAIVSMIATGPS,< -0.25
18,VASGW,-0.241
19,PERDSLAVGRPEVVIVS,< -0.25
20,TSNPRDVILRLTPTDVHVEN,< -0.25
21,CRYIFLVAFVVKCTAM,< -0.25
22,GTCIVGHEKSCSVP,< -0.25
23,KIS,< -0.25
24,CVTNRFRACTVVGMVQWGTS,< -0.25
25,GGHRALWLRPAGPRRKIPPQ,< -0.25
26,GGEIFRLRPAASSREYSAVR,< -0.25

row,Substance,growth estimate
1,TRMKRPCVKMGSCLAAWIAS,< -0.25
2,PSLYPHLIP,< -0.25
3,PTEVEGSLRGQGI,< -0.25
4,VKPLLDFALMTNRSQTSAPG,< -0.25
5,DGRNEFAQKGF,< -0.25
6,HLFRHLMKQATICAYCQRRG,< -0.25
7,NLKVGVVQMWI,< -0.25
8,NRKCRSQCDQMFRIKVLRPL,< -0.25
9,NATTGRCKMV,< -0.25
10,WAWMASVIYRSRAQHSGYCA,< -0.25
11,FPSEEKGV,-0.246
12,DLDVSKGSGIFGNSR,< -0.25
13,DLGVVQVLYRLL,< -0.25
14,SESVRRKDSYRVLFANAYDI,< -0.25
15,GSIPPIRCGYRGLGDHTRAS,< -0.25
16,QVNHRFPKRGLMVWL,< -0.25
17,AEMLCGALDVDHPNMSCIDP,< -0.25
18,FRGLRAQVYYTTACYRELTR,< -0.25
19,PHHPDCGACLTDWREIPCPE,< -0.25
20,WLVRIRGWAV,< -0.25
21,RTRSPM,< -0.25
22,LSTVF,< -0.25
23,FMVLRGRLGESLRCWQIV,< -0.25
24,IKKT,< -0.25
25,DTG,-0.247 ± 0.0037
26,LRQ,-0.247 ± 0.0037

row,Substance,growth estimate
1,AQRELAQELLGRRNLLTLFD,< -0.25
2,EADTYESWPGDGHWVWVSPR,< -0.25
3,AYIGIAFS,< -0.25
4,KVNLFV,< -0.25
5,AAKKPPM,< -0.25
6,YYGSEGLGWGLEERISFIVA,< -0.25
7,FYRGHFKGFCGSPMPGRMRV,< -0.25
8,RCSGR,< -0.25
9,GNSILSYPAFGLGGSAVRLP,< -0.25
10,SKWREGA,< -0.25
11,PMDRIREKPFHS,< -0.25
12,DPASSLSCAHLRTREWYRDQ,< -0.25
13,SANY,< -0.25
14,GRFTVACIRPIVPARSL,< -0.25
15,WTCLGREYQAVNRCPQPRGD,< -0.25
16,AACGSSRAKTA,< -0.25
17,AVDRIHRVAVSTYYVHTTLA,< -0.25
18,RSSG,< -0.25
19,ENTLTYSD,< -0.25
20,GSQNSTPSW,< -0.25
21,MGECF,< -0.25
22,KRNGQLIVRSRGVHPVWRRG,< -0.25
23,EWAGAYKY,-0.106
24,IEIITSRACAVSWRCLERRV,< -0.25
25,RRVGYVRTVDWSHPELW,< -0.25
26,SRGLGSSE,< -0.25

row,Substance,growth estimate
1,LSSRSILWD,< -0.25
2,RVWLQRQFACPQAQVCSVNL,< -0.25
3,LMGYRIEASANGW,< -0.25
4,TGLEGTRLTSSSIEIEC,< -0.25
5,HPGRRGAPGKVGCQSALFRP,< -0.25
6,LAFFRSREIRRAIFAWRTKR,< -0.25
7,GRIDVTRKRICRETKAPAHA,< -0.25
8,NTKLGGSGISTVYGSPTWAE,-0.243
9,EQRPNHASIFRREV,< -0.25
10,ILLPSLRGWTMSPRGAPPGG,< -0.25
11,SPHLGVPNRVFCRSSSLVIV,< -0.25
12,WTTIGTQMGGLTLGSRGNTL,< -0.25
13,VILGQSLPYHSRYSAVGHST,< -0.25
14,NLTQLYSHETGQKVD,< -0.25
15,ILCVVIQTTPFGRQ,< -0.25
16,TILGVKALFVSRR,< -0.25
17,SGHLIAL,< -0.25
18,ETPIGVFGLCKRHFERHLLV,< -0.25
19,ASLLLPTAQ,< -0.25
20,RRDK,< -0.25
21,GFGYRLDSAIRWSPTSTHNR,< -0.25
